According to PubChem BioAssay AID1347075 (National Center for Advancing Translational Sciences (NCATS), 2019):
Values joined by “and” are separate entries in the source; they are usually repeats but may differ in a detail not shown here. Equal entries are not always repeated. Hit rate of the full screen: of about 400,000 compounds, about 5,500 (1.4%) were called active. The inconclusive results got no clear call from the source; some entries with a clear call stand among them for comparison. Calls come from the whole dose curve; as a rule, active = well fitted cell-killing curve with a large enough effect; inconclusive = small, poorly fitted or top-dose-only effect, or effect the other way; inactive = flat fitted curve, though single readings scatter. Potencies of inconclusive entries are doubtful fits and often do not repeat.

Assay: qHTS assay for MDR1-selective chemotherapeutics: Primary screen using the parental adenocarcinoma cell KB-3-1; note: nearly all actives have a fitted effect of over 60% in size
Settings: KB-3-1 viability, CellTiter-Glo ATP luminescence, 72 h; activity change, negative = cytotoxic: at 46.1 µM (top of the series)
Outline: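 Cytotoxicity in the drug-sensitive parental line KB-3-1 was scored as loss of CellTiter-Glo luminescence following 72 h incubation with compound. Values come from curve fitting of normalized concentration-response data.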
% is set by controls: 0 for no effect and ±100 for the full control effect; potency is the fitted concentration of half-maximal effect.

SMILES	Potency	activity change, negative = cytotoxic
COC(=O)c1sc(C(C)(C)C)cc1CSc1ccccc1	inactive	–
C#CC1(N2CCCCC2)CCCCC1	inactive	–
COc1ccc(Nc2nc3ccccc3nc2NS(=O)(=O)c2ccc(Cl)cc2)cc1OC	inconclusive: 29.1 µM [cytotoxic, single point]	–
ClC(/C=N/n1cnnc1)=C/c1ccccc1	inconclusive: 29.1 µM [cytotoxic, single point]	–
COc1ccccc1-c1cc(C(=O)NCCc2ccccc2)no1	inconclusive: 25.9 µM [cytotoxic, single point] and inconclusive: 23.1 µM [cytotoxic, single point]	–
COc1ccccc1C(=O)COC(=O)C1(C)CC1(Cl)Cl (stereo not given)	inactive	–
CC(C)CCN1C(=O)c2ccc(-c3nc4ccccc4c(=O)o3)cc2C1=O	inactive	–
COc1cccc(C(=O)Oc2c(CN3CCOCC3)cc(Cl)c3cccnc23)c1	inconclusive: 32.6 µM [cytotoxic, single point]	–
Cc1c(C#N)c(N=CN(C)C)c(C(=O)c2ccc(Br)cc2)n1-c1ccccc1	inactive	–
Cc1ccc(-n2c(SCC(=O)NCCC3=CCCCC3)nc3n[nH]c(C)c3c2=N)cc1Cl	inconclusive: 29.1 µM [cytotoxic, single point]	–
CCOc1ccc(OCC(=O)Nc2ccccc2N2CCCC2)cc1	inconclusive: 20.6 µM [cytotoxic, single point]	–
CCN(CC)CCSc1nnc2c3ccccc3n(Cc3ccccc3)c2n1	inconclusive: 29.1 µM [cytotoxic, single point]	–
O=C(Nc1ccc(Cl)c(S(=O)(=O)N2CCOCC2)c1)c1cccs1	inactive	–
COc1ccc2c(c1)c1c(c(=O)n(-c3cccc(C)c3)c(=O)n1CC(=O)N1CCCC1)n2C	inactive	–
Cc1ccc2c(=O)cc(C(=O)Nc3c(C(=O)c4ccccc4)oc4ccccc34)oc2c1C	inactive	–
Nc1c(N=Nc2ccc([N+](=O)[O-])cc2)c(S(=O)(=O)O)cc2cc(S(=O)(=O)O)c(/C=C/c3ccccc3)c(O)c12	inconclusive: 8.2 µM [cytotoxic, partial curve]	–
COc1cc(O)oc1C=Nc1ccc(C(=O)O)cc1	inconclusive: 25.9 µM [cytotoxic, single point]	–
CCC(C)NC(=O)c1ccc2c(c1)N=C(C)c1cc(C)ccc1S2 (stereo not given)	active: 5.17 µM	–
O=C(Cc1ccc(S(=O)(=O)N2CCOCC2)s1)Nc1cc(C(F)(F)F)cc(C(F)(F)F)c1	inconclusive: 29.1 µM [cytotoxic, single point]	–
O=Cc1c(-c2ccccc2)nc2ccccn12	–	inconclusive: -12.5%

Taken from above:
`COc1cc(O)oc1C=Nc1ccc(C(=O)O)cc1` | Potency: inconclusive: 25.9 µM [cytotoxic, single point]
`Cc1c(C#N)c(N=CN(C)C)c(C(=O)c2ccc(Br)cc2)n1-c1ccccc1` | Potency: inactive
